# From paper PMC7997910
# By UniProt entry, the sequences of proteins in these tests, tags left out. Where a name states a change or a piece, a line headed by the entry shows the natural chain unless it says otherwise. Residues count along the entry.
# UniProt O15118: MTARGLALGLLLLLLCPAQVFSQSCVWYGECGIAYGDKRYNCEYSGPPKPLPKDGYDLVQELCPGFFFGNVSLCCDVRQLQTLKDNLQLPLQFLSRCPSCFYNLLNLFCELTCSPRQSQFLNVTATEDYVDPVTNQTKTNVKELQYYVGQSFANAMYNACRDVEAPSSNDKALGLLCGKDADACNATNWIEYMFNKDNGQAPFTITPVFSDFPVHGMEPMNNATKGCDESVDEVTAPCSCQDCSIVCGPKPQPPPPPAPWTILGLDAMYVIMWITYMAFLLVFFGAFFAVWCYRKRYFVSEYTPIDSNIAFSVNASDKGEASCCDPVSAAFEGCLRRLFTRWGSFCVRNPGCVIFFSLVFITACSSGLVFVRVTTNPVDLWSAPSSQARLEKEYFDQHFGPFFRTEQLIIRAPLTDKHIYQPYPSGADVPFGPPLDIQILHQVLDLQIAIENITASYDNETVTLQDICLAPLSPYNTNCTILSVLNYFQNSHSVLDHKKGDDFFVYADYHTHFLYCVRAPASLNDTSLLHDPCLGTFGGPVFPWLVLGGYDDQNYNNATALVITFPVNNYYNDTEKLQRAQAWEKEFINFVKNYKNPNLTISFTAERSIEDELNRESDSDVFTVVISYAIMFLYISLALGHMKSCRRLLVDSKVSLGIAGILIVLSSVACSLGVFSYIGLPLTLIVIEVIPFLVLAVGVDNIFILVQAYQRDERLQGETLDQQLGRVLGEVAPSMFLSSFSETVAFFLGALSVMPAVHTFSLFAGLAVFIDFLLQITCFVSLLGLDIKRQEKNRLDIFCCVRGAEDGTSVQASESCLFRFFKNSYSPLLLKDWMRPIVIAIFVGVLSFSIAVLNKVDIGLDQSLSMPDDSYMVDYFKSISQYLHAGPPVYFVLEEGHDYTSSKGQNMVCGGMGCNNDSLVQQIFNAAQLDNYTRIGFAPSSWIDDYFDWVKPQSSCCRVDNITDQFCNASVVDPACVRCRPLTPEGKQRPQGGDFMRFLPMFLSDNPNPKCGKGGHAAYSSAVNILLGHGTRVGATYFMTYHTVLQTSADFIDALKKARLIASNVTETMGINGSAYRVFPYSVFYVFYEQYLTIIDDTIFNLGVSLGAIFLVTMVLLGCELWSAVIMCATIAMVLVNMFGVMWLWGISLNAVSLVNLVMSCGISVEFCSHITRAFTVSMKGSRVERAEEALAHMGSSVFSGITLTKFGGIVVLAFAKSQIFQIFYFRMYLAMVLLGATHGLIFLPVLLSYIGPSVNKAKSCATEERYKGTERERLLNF
# overexpressed NPC1 in HEK293 cells: residues 23-1278 of O15118
# UniProt Q8CJ69, residues 40-685: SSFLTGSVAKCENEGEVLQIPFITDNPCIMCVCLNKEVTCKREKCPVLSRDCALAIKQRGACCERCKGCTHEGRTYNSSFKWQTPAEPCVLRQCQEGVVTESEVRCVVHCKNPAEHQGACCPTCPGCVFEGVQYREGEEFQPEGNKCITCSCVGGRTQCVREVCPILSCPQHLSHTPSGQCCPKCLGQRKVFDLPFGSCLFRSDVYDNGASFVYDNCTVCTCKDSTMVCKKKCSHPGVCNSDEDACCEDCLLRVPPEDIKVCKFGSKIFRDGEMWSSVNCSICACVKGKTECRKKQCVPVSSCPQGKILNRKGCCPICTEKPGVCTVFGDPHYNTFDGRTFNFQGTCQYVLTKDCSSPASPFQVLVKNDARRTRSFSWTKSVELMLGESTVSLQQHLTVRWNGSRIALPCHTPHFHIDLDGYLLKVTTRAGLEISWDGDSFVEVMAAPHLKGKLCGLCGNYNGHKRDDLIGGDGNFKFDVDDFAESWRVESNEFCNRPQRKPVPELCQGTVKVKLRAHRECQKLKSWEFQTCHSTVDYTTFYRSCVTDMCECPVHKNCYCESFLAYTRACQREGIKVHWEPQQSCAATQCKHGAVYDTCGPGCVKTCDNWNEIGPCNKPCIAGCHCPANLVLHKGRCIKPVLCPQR
# UniProt O35604, residues 23-1277: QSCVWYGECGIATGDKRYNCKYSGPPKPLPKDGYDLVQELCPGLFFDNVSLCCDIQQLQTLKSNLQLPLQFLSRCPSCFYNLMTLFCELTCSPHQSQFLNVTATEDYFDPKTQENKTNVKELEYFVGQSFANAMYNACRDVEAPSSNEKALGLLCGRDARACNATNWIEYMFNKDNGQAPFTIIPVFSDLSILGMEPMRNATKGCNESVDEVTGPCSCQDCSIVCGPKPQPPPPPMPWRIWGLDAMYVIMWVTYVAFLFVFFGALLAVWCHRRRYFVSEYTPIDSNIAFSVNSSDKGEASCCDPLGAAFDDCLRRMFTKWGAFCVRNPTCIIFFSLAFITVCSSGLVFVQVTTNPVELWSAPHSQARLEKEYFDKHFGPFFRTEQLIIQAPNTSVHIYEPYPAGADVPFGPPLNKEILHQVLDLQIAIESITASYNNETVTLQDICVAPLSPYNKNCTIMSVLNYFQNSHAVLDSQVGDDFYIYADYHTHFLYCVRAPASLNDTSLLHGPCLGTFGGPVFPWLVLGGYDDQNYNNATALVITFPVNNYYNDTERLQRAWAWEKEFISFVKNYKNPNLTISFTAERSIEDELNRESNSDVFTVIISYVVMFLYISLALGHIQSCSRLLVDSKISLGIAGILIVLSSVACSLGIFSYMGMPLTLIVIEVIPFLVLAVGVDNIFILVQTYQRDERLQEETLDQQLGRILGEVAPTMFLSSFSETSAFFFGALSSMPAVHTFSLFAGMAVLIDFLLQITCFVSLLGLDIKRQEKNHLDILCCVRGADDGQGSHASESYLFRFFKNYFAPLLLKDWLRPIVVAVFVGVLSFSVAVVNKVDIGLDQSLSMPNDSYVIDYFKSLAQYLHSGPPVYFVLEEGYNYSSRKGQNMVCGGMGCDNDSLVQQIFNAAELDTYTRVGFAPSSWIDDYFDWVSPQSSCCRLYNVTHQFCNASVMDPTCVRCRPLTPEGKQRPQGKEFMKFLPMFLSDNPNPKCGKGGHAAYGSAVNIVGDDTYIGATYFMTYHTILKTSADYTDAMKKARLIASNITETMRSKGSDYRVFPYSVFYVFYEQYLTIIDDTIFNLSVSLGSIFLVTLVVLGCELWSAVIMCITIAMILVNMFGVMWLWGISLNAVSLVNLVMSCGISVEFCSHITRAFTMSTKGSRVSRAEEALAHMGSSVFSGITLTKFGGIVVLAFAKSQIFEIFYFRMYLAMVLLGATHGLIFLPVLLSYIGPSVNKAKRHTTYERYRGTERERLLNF
# UniProt P06213, residues 28-1382: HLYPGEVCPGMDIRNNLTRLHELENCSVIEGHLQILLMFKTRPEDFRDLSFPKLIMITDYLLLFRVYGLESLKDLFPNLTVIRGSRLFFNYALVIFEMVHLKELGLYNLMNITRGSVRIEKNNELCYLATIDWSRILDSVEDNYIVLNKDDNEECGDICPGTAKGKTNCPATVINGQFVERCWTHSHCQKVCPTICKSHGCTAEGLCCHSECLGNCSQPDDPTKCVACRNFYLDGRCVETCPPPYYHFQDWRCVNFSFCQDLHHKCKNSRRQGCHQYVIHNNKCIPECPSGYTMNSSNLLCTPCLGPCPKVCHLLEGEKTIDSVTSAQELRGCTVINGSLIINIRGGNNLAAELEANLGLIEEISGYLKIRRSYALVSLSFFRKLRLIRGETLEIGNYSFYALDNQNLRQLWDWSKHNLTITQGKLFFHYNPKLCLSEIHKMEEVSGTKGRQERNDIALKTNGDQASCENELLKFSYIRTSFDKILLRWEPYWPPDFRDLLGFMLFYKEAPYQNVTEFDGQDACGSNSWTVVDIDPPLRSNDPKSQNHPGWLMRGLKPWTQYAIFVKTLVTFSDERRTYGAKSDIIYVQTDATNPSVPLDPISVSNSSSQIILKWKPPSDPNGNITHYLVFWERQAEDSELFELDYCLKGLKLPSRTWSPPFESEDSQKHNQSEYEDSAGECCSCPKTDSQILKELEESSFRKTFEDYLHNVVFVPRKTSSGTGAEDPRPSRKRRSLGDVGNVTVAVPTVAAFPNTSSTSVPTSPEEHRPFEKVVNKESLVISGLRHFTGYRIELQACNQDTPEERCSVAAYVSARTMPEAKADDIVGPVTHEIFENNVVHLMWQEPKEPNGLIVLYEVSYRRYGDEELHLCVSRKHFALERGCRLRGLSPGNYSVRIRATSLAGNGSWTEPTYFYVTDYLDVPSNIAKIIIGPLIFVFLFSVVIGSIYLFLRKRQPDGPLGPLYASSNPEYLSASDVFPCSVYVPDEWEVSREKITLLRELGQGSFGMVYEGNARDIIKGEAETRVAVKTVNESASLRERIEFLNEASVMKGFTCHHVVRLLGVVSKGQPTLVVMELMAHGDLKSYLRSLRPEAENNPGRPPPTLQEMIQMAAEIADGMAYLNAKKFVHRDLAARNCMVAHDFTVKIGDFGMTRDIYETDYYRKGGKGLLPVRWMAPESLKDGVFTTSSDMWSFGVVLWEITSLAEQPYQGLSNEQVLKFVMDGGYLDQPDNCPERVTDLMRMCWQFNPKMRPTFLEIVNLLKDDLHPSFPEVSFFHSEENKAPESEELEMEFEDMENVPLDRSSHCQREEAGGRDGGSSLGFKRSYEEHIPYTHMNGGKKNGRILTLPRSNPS
# No constants are given. Whether binding was seen depends on the method and setting. Binding seen in cells or lysates may run through a third protein. Some entries that bind do so weakly or less than the wild type.
# Legend:
# [1] = molecular target: Flag-tagged NPC1 (Niemann-Pick C1) (UniProt O15118); assay: co-IP; HEK293 cells co-transfected with a Flag-tagged and a GFP-tagged construct; lysates (1% Triton X-100, 50 mM Tris pH 7.4, 150 mM NaCl, 10% glycerol) precipitated with anti-Flag resin, blotted with anti-GFP and anti-flag
# [2] = molecular target: flag-tagged BMPER expressed in HEK293 cells (UniProt Q8CJ69); assay: as above
# [3] = molecular target: overexpressed NPC1 in HEK293 cells (UniProt O15118); assay: co-IP; overexpressed NPC1 and IR in HEK293 cells (Supplementary Fig. 8h)
# [4] = molecular target: endogenous NPC1 in primary hepatocytes (mouse (endogenous in primary hepatocytes)) (UniProt O35604); assay: co-IP; primary hepatocytes treated with flag-tagged BMPER; endogenous NPC1 (Supplementary Fig. 8d; which protein was precipitated is not told); only the binder purified
substance,measurement,setting,value
GFP-tagged BMPER (bone morphogenetic protein-binding endothelial regulator) (from UniProt Q8CJ69 40-685),binding,[1],binds
"GFP-tagged NPC1 N-terminal domain construct (NTD, a.a. 25-164) (from UniProt O15118 25-164) (domain or fragment)",binding,[2],binds
overexpressed insulin receptor (IR) in HEK293 cells (from UniProt P06213 28-1382),binding,[3],binds
purified flag-tagged BMPER protein (from UniProt Q8CJ69 40-685),binding,[4],binds
